PubChem BioAssay AID504784 – Drosophila RNAi Screening Center – 2011
In all, the deposit lists about 17,000 reagents; below is a random part of those that have a named target and a result. 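Each column is one replicate's B-score; the combined score over replicates was not deposited, so single values may mislead.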 Reagents against one gene are numbered here. Names joined by + are all predicted targets of the reagent.

- Purpose: 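Search for regulators of lipid droplet storage in oleate-fed fly cells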 (primary screen)
- System: Drosophila Kc167 embryonic cells
- Reagent: long dsRNA against Drosophila genes, about 250 ng dsRNA per well
- Duration: 4 days
- Conditions: cells fed 400 µM oleic acid bound to BSA
- Detection: 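Microscope images give a droplet-to-nucleus area ratio, taken as log and converted to a screen-wide B-score; higher values mean greater lipid storage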
- Scale: droplet/nuclear area B-score: higher = more stored lipid (overstorage)

target	reagent no.	droplet/nuclear area B-score, replicate 1	droplet/nuclear area B-score, replicate 2	droplet/nuclear area B-score, replicate 3
CG6576	1	1.33	1.94	
Prip	1	-2.54	0.266	
CG4891	1	0.105	0.0061	
CG14302	1	-0.972	1.15	
CG10845	1	1.06	0.0813	
CG9328	1	2.84	-0.892	
CG15544	1	-0.709	-0.0402	
CLIP-190	1	0.123	-0.842	
Kdm4B	1	-0.0258	1.38	
CG11550	1	0.828	-0.227	
ltl	1	-1.17	0.968	
ltl	2	2.25	-0.41	
Adgf-A2	1	3.13	-0.156	
Arr1	1	0.474	-0.388	
Nup160 + RfC38	1	-1.84	-0.843	
eyg	1	-2.37	-0.0521	
eyg	2	1.02	0.107	
PRL-1	1	-0.497	-2.41	
CG9588	1	-0.00134	-1.4	
CG32212 + hpRNA:CR33940	1	-0.0812	0.0257	
CG30495	1	0.956	0.091	
CG30154	1	-1.18	-0.528	
trk	1	1.09	-0.11	
lectin-46Ca	1	-0.0637	-0.0409	-0.75
CG14212	1	0.0329	1.31	
CG9953	1	1.86	-0.306	
Jheh3	1	0.804		
Inx2	1	-1.04	0.952	0.206
tant	1	0.426	-1.2	
CG17068	1	-0.334	1.36	
CG10877	1	-0.0701	-2.16	
HipHop	1	1.58	1.48	-0.848
Usp7	1	-0.221	0.548	
Usp7	2	-1.51	0.204	0.84

2 entries from above, sorted by “droplet/nuclear area B-score, replicate 2”, low to high:
target	reagent no.	droplet/nuclear area B-score, replicate 1	droplet/nuclear area B-score, replicate 2	droplet/nuclear area B-score, replicate 3
CG9588	1	-0.00134	-1.4	
CG32212 + hpRNA:CR33940	1	-0.0812	0.0257	
